# Data taken from patent US20170188606A1, “COMPOUNDS, COMPOSITIONS, AND METHODS FOR REDUCING OR E[…] TASTE” (Chromocell Corporation, priority 2014, published 2017).
# The name of at least one read-out is uncertain.
# Experiment: Solubilization of stock solutions for taste samples
# Conditions: Panel A samples: 5 mg/mL or 3.75 mg/mL in ethanol, then diluted
compound,measurement,value
"CN[C@@H](Cc1c[nH]c2ccccc12)C(=O)O [Compound 1, N-methyl-L-tryptophan]",solubilization,not all of Compound 1 solubilized
